The exact form of at least one protein or probe is not confirmed. Protein sequences can lack the tags named with them.
What was measured:
Assay in all cases: EMSA
[1] = molecular target: T1, DVU2934 response regulator (Desulfovibrio vulgaris Hildenborough) (UniProt Q727C1); settings: 10 mM Tris-HCl pH 7.5, 1 mM DTT, 50 mM KCl, 5 mM MgCl2, 25% glycerol, 1 ug/ml poly dI-dC, 50-100 fmol biotinylated DNA, 25-30 C, 20 min; recombinant protein; protein details: C-terminal V5-6xHis; label: 5'-biotin top strand
T1 sequence (looked up, limits assumed): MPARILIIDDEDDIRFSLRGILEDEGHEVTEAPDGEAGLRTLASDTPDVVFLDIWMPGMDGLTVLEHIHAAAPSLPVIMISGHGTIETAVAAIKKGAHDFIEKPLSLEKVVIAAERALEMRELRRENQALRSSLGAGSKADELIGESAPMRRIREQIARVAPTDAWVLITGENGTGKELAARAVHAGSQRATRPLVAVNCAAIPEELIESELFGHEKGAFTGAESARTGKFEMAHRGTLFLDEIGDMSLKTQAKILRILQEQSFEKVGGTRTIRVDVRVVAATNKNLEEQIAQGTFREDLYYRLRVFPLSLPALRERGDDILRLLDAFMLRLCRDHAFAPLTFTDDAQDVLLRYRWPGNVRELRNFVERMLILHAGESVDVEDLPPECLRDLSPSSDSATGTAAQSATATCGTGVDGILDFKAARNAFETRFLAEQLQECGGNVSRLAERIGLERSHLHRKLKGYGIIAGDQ

[2] = molecular target: T2, DVU3023 response regulator (Desulfovibrio vulgaris Hildenborough) (UniProt Q726T3); settings: 10 mM Tris-HCl pH 7.5, 1 mM DTT, 50 mM KCl, 5 mM MgCl2, 25% glycerol, 1 ug/ml poly dI-dC, 50-100 fmol biotinylated DNA, 25-30 C, 20 min; recombinant protein; protein details: C-terminal V5-6xHis; label: 5'-biotin top strand
T2 sequence (looked up, limits assumed): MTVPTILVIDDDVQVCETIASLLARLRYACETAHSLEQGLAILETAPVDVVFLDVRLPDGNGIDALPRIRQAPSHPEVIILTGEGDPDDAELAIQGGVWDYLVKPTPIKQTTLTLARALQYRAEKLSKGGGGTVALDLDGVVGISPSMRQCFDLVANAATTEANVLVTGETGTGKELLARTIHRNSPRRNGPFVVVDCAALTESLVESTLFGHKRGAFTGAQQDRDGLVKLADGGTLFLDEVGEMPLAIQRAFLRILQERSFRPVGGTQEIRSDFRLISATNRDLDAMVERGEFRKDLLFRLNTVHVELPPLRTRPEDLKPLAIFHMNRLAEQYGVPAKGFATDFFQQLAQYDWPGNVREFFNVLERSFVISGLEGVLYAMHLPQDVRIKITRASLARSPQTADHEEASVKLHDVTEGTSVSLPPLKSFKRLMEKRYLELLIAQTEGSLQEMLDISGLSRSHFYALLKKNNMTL

[3] = molecular target: T3, DVU1083 response regulator (PhoB) (Desulfovibrio vulgaris Hildenborough) (UniProt Q72D47); settings: 10 mM Tris-HCl pH 7.5, 1 mM DTT, 50 mM KCl, 5 mM MgCl2, 25% glycerol, 1 ug/ml poly dI-dC, 50-100 fmol biotinylated DNA, 25-30 C, 20 min; recombinant protein; protein details: C-terminal V5-6xHis; label: 5'-biotin top strand
T3 sequence (looked up, limits assumed): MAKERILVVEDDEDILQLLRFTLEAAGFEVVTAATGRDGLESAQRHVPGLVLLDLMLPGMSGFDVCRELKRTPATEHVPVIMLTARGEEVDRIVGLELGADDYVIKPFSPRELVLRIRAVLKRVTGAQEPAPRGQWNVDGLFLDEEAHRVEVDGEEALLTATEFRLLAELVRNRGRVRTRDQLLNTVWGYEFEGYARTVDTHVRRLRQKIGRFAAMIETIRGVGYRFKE

[4] = molecular target: T4, DVU2394 response regulator (Desulfovibrio vulgaris Hildenborough) (UniProt Q729F7); settings: 10 mM Tris-HCl pH 7.5, 1 mM DTT, 50 mM KCl, 5 mM MgCl2, 25% glycerol, 1 ug/ml poly dI-dC, 50-100 fmol biotinylated DNA, 25-30 C, 20 min; recombinant protein; protein details: C-terminal V5-6xHis; label: 5'-biotin top strand
T4 sequence (looked up, limits assumed): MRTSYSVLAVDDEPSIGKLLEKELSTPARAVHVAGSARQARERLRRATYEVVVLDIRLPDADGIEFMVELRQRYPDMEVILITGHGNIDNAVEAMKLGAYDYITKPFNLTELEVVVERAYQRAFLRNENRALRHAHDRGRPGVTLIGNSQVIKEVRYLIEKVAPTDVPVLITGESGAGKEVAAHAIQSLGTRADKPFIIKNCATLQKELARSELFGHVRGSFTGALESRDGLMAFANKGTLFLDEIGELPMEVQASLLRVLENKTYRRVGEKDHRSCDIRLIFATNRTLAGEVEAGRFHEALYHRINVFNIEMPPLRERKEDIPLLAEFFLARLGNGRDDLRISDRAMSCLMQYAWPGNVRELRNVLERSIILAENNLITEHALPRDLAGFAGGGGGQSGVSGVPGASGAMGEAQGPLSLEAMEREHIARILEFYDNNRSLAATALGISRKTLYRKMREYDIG

[5] = molecular target: T5, DVU0804 response regulator (Desulfovibrio vulgaris Hildenborough) (UniProt Q72DX5); settings: 10 mM Tris-HCl pH 7.5, 1 mM DTT, 50 mM KCl, 5 mM MgCl2, 25% glycerol, 1 ug/ml poly dI-dC, 50-100 fmol biotinylated DNA, 25-30 C, 20 min; recombinant protein; protein details: C-terminal V5-6xHis; label: 5'-biotin top strand; letters put together from the description
T5 sequence (looked up, limits assumed): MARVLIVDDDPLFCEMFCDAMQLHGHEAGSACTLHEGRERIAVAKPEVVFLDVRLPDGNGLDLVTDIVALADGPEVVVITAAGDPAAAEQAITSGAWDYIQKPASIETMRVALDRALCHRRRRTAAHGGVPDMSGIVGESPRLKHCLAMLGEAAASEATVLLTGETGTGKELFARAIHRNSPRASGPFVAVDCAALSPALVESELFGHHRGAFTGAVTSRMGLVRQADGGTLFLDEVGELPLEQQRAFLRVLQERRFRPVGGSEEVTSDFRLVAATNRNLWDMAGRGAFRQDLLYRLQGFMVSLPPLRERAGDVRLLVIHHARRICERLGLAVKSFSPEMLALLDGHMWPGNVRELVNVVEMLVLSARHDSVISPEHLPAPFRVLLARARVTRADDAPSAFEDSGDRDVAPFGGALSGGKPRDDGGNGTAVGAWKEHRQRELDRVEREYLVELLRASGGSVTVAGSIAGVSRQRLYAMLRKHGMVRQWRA

CTCGCCATGTGGTGTGCAGAACACACACTGTGCGTGG (double strand) [DVU2917 motif wt]
binding result [1]: binds

CTCGCGTTGTGGTGTGGATAACACACAGTGTGCGTGG (double strand) [DVU2917 motif, bases outside palindrome changed]
binding result [1]: binds

GCCACACGAAGTCCGCTTTTCAAGACACGCTACCAC (double strand) [DVU3025 motif wt]
binding result [2]: binds

GTTGTAAAATGTCACACGGTTGTAACCGCTCTTCCA (double strand) [DVU1083 motif wt]
binding result [3]: binds

TCCAGCCATCTATGTTTTTTCTGGCATATGTGGCATTTCGACCCAA (double strand) [DVU2405 motif wt]
binding result [4]: binds

TTATTCTGTAAACTTTTTATTTACAAAATGACATC (double strand) [DVU0805 upstream binding-site substrate (35 bp)]
binding result [5]: binds

Reference: paper PMC3333781, “Systematic mapping of two component response regulators to gene targets in a model sulfate reducing bacterium”
